Experimental data published in the supplement of paper PMC7666118.
Some of the results follow.

Chains of the proteins cited; added tags and fusions are not shown. Lines headed by an entry give the natural chain unless they say otherwise; changes in a name come on top.
UniProt Q8N3U4: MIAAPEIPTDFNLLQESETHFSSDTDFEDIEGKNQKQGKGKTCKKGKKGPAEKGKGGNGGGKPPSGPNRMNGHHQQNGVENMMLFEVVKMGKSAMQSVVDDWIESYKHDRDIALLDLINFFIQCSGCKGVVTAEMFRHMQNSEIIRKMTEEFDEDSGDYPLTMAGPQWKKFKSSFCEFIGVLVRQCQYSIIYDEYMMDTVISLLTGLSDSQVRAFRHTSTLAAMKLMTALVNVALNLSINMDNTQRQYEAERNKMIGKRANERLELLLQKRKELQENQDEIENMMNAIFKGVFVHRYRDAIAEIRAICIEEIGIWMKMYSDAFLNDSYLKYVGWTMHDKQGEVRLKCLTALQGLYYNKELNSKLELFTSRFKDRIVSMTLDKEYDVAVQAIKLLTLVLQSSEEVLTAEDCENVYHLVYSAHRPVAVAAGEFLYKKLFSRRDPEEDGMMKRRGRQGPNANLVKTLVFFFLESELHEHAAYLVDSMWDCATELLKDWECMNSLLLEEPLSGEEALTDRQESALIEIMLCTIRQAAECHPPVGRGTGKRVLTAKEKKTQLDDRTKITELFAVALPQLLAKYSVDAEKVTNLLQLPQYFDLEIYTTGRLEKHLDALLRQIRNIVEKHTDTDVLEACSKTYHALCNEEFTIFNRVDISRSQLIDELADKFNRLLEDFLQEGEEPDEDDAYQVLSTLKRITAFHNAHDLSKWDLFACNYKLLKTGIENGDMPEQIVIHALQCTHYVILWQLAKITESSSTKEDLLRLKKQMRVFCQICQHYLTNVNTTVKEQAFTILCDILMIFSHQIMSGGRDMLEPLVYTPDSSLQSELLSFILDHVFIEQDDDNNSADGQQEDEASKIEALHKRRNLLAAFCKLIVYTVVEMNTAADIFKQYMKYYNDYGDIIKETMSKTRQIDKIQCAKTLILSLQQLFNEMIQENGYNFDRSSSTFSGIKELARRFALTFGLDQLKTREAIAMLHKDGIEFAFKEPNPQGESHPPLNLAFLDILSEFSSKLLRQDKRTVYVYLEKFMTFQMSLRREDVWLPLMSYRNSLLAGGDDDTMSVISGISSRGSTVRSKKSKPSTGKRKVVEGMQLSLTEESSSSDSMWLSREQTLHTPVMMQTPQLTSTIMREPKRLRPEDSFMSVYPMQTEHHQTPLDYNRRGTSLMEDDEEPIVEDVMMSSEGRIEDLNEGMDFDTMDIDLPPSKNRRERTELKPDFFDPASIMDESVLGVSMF
UniProt Q92804: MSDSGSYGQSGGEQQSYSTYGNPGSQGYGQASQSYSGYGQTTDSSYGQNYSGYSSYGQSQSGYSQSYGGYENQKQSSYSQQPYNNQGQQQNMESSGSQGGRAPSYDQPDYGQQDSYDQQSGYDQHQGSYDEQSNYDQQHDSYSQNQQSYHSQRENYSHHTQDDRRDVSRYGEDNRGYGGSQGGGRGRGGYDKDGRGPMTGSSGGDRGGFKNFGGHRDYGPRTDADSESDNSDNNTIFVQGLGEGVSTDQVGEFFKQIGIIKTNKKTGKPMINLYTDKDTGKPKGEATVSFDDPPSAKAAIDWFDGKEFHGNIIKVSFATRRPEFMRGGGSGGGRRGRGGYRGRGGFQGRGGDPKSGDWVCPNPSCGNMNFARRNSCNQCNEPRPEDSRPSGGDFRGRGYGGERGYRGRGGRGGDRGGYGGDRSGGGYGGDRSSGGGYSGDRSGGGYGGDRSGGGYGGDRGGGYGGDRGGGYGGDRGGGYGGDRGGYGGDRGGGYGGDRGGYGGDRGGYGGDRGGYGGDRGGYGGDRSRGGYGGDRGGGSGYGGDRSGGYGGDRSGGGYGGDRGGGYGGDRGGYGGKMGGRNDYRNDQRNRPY
UniProt Q9UBB9: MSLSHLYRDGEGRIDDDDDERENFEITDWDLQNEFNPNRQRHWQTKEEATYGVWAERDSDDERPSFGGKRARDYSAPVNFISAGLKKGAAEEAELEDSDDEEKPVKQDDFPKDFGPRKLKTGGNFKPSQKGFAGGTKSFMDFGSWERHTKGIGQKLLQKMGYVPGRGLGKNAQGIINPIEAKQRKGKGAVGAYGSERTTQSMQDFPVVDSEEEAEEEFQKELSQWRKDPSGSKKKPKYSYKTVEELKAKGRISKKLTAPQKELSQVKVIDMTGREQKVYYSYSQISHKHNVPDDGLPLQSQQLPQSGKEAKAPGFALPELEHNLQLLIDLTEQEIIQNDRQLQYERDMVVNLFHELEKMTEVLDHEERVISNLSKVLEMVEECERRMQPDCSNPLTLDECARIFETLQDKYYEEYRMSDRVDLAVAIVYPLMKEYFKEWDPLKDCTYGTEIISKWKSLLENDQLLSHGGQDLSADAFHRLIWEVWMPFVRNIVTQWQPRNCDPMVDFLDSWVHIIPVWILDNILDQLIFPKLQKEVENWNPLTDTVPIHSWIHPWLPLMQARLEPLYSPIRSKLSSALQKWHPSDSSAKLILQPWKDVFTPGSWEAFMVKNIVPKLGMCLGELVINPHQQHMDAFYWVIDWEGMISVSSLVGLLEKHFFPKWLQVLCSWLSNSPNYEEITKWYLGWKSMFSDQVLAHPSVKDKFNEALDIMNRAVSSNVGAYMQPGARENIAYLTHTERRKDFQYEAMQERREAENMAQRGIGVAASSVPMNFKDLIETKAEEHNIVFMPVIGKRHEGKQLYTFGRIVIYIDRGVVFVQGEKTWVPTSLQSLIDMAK
UniProt O95210: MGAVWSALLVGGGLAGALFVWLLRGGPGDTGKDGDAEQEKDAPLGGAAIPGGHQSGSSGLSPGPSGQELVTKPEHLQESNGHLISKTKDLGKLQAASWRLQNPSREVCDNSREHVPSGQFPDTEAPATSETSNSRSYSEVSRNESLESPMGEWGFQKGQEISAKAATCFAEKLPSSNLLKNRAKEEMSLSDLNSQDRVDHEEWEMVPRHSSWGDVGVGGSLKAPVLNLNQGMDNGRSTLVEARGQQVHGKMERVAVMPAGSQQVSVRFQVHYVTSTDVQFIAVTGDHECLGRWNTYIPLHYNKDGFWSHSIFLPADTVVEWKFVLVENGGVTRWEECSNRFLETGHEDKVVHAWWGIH
UniProt Q96FJ0: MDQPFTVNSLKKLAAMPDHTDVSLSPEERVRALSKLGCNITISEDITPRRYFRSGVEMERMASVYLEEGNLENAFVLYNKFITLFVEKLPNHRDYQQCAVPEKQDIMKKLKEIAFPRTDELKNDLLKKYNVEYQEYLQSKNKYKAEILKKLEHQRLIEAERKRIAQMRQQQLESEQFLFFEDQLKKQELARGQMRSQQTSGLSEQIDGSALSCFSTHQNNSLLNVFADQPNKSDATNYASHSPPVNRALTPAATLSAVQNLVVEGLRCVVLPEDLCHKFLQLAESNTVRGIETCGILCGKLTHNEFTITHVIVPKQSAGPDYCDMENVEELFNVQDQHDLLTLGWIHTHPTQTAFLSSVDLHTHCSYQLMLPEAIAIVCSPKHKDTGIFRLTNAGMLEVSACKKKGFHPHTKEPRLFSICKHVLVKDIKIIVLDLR
UniProt Q9UHD2: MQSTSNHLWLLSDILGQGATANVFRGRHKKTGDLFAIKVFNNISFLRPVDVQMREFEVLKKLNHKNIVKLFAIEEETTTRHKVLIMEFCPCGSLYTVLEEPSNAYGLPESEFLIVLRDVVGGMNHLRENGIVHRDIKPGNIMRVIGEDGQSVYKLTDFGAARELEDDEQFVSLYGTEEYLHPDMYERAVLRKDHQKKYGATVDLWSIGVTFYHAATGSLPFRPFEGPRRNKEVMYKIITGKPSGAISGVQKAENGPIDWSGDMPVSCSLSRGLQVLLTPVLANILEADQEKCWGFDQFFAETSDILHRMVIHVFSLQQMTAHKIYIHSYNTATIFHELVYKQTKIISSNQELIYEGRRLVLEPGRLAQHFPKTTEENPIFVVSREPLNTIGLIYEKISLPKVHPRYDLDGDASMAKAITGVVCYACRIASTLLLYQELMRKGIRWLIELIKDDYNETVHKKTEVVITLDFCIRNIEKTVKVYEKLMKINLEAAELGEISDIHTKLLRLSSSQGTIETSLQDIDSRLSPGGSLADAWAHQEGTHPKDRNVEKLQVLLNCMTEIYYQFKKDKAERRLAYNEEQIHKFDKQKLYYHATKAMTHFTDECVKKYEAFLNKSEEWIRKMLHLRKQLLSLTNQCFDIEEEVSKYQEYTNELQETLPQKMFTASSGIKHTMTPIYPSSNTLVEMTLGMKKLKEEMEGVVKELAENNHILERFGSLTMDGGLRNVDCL
UniProt O43805: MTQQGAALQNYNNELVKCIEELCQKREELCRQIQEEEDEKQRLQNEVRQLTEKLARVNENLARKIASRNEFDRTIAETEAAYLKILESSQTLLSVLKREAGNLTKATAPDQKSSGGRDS
UniProt Q9UH65: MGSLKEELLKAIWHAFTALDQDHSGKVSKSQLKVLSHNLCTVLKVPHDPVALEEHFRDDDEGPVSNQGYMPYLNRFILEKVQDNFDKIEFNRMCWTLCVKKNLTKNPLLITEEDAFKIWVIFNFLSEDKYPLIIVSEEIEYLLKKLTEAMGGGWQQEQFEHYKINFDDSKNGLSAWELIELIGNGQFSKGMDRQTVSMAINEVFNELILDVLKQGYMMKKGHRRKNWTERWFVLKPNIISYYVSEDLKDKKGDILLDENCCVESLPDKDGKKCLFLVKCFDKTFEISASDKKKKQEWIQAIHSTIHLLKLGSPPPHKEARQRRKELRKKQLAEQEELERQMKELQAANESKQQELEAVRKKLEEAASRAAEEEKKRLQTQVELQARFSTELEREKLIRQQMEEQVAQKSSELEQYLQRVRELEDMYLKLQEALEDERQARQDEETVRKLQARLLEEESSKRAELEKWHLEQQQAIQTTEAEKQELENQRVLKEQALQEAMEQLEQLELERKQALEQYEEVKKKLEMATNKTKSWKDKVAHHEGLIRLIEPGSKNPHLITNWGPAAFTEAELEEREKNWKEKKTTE
UniProt P42226: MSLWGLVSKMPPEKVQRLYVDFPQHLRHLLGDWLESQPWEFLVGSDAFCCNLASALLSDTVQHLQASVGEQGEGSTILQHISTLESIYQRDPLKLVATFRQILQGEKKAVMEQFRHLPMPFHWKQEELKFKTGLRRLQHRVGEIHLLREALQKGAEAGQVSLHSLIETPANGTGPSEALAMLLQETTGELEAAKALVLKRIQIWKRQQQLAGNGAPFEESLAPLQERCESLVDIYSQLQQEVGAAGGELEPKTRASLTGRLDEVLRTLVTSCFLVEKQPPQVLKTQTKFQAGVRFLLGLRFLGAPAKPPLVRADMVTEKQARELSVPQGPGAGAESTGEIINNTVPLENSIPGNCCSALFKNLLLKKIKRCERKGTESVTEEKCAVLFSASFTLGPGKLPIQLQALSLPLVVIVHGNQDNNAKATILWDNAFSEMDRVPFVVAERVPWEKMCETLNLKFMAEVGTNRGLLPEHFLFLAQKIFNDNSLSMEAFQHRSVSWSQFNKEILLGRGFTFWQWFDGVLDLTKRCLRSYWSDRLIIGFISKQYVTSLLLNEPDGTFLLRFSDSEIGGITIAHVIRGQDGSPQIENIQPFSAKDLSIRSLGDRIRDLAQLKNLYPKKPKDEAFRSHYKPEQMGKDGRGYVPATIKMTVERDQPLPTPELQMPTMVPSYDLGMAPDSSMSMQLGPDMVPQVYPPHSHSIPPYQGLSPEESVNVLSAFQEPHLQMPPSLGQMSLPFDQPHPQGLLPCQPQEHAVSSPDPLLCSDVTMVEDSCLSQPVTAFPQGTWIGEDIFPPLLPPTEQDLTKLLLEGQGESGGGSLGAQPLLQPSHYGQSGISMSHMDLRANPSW
UniProt Q96RS0: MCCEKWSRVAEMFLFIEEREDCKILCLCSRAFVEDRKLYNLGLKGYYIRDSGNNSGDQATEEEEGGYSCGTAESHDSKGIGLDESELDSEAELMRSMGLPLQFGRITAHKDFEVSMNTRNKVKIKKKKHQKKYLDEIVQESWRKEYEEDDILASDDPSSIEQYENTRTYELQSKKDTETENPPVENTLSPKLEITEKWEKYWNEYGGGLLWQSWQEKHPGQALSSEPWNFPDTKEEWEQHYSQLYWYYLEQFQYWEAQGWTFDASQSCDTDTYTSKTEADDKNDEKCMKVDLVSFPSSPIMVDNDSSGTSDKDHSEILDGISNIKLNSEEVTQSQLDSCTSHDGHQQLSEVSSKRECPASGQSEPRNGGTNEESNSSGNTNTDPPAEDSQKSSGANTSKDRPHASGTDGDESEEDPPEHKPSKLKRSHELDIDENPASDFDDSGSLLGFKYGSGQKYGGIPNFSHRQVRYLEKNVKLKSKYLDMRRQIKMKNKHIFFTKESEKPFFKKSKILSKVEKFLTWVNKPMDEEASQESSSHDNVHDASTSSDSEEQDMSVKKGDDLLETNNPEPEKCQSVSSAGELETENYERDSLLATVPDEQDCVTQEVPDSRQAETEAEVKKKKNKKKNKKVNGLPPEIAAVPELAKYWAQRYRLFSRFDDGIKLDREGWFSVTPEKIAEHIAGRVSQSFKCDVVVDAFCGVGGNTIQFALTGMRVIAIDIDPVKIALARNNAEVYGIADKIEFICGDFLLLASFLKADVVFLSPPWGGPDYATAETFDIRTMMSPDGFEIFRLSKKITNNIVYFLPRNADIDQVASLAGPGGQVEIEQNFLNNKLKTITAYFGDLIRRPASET

compound: COc1ccc(Cn2ccc3cc(C)c(C(=O)NO)cc32)cc1; test: dose-dependent thermal stabilisation call (2D-TPP, DLPTP, 10% FDR) (binary (1 = stabilised)); higher = stabilised by the compound; conditions: system: HL-60 intact cells; concentration range 0.04-10 µM
Procedure: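 2D thermal proteome profiling in intact HL-60 cells treated with BRD-3811 (0, 0.04, 0.29, 2, 10 uM) for 90 min at 37 C, then heated 3 min at one of 12 temperatures (42-63.9 C). Soluble protein was quantified by TMT10 MS. The value is the DLPTP call of the paper: dose-dependent thermal stabilisation over all temperatures at 10% FDR (F-test of a dose-response against a flat model); one experiment, one call per tested protein.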

Row | Target | dose-dependent thermal stabilisation call
1 | STK19 (UniProt P49842) | inactive: 0
2 | TARSL2 (UniProt A2RTX5) | inactive: 0
3 | TBCE (UniProt Q15813) | inactive: 0
4 | TBP (UniProt P20226) | inactive: 0
5 | SUPT16H (UniProt Q9Y5B9) | inactive: 0
6 | STXBP3 (UniProt O00186) | inactive: 0
7 | TAF2 (UniProt Q6P1X5) | inactive: 0
8 | STAT5B (UniProt P51692) | inactive: 0
9 | SPATA5L1 (UniProt Q9BVQ7) | inactive: 0
10 | SPAG7 (UniProt O75391) | inactive: 0
11 | SSU72 (UniProt Q9NP77) | inactive: 0
12 | STAG2 (UniProt Q8N3U4) | inactive: 0
13 | SPTBN1 (UniProt Q01082) | inactive: 0
14 | SORD (UniProt Q00796) | inactive: 0
15 | SRRM1 (UniProt Q8IYB3) | inactive: 0
16 | STX17 (UniProt P56962) | inactive: 0
17 | TFAM (UniProt Q00059) | inactive: 0
18 | TAF15 (UniProt Q92804) | inactive: 0
19 | SPG7 (UniProt Q9UQ90) | inactive: 0
20 | SPAG5 (UniProt Q96R06) | inactive: 0

Row | Target | dose-dependent thermal stabilisation call
21 | TFIP11 (UniProt Q9UBB9) | inactive: 0
22 | SSBP1 (UniProt Q04837) | inactive: 0
23 | TAP2 (UniProt Q03519) | inactive: 0
24 | TBC1D10C (UniProt Q8IV04) | inactive: 0
25 | SPRY2 (UniProt O43597) | inactive: 0
26 | STBD1 (UniProt O95210) | inactive: 0
27 | STAMBPL1 (UniProt Q96FJ0) | inactive: 0
28 | TBK1 (UniProt Q9UHD2) | inactive: 0
29 | TBC1D25 (UniProt Q3MII6) | inactive: 0
30 | STAU1 (UniProt O95793) | inactive: 0
31 | SSNA1 (UniProt O43805) | inactive: 0
32 | SWAP70 (UniProt Q9UH65) | inactive: 0
33 | STX4 (UniProt Q12846) | inactive: 0
34 | TAF4 (UniProt O00268) | inactive: 0
35 | STX12 (UniProt Q86Y82) | inactive: 0
36 | TBCB (UniProt Q99426) | inactive: 0
37 | TDRD7 (UniProt Q8NHU6) | inactive: 0
38 | STAT6 (UniProt P42226) | inactive: 0
39 | TGS1 (UniProt Q96RS0) | inactive: 0
40 | STX5 (UniProt Q13190) | inactive: 0

Another view of part of the listing above.
Row	Target	dose-dependent thermal stabilisation call
23	TAP2 (UniProt Q03519)	inactive: 0
31	SSNA1 (UniProt O43805)	inactive: 0
